Data: patent US20090247466A1, “NEUROPROTECTIVE INTEGRIN-BINDING PEPTIDE AND ANGIOPOIETIN-1 TREATMENTS” (University of Louisville Research Foundation, priority 2008, published 2009)
Several values for one entry are separate records, joined by “and”; a condition that tells them apart may be missing. Equal values may be shown once. Part of at least one peptide drawing is inferred or uncertain, most often the ends. Ends that are not written are not given here.

What was measured:
Format in all cases: in vivo
[1] = tested on: C57BL/6 mice with spinal cord contusion at T9; assay: Inflammation: CD45 and CD68 immunostained area after spinal cord contusion
Procedure: Adjacent sections at each mm level were processed for double- or triple immunofluorescent staining to detect CD45 (leukocytes), CD68 (activated microglia/macrophages), PECAM1 (endothelial cells), αv, β3 or α5β1 integrin, or in some cases laminin (to define the so-called heterodomain or area of tissue loss). Slides were warmed for 20 minutes on a slide warmer, a ring of wax applied around the sections with a PAP pen (Invitrogen™, Carlsbad, Calif.) and the slides rinsed in 0.1 M Tris-buffered saline (TBS) for 10 min. After blocking non-specific staining with 10% donkey serum in TBS containing 0.3% Triton X-100 (TBST) for 1 hour at room temperature, sections were incubated overnight at 4° C. in TBST containing 5% donkey serum containing rat anti-CD45 (1:500, Cat# CBL1326, Chemicon International, Temecula, Calif.), rat anti-CD68 (1:1000, Cat# MCA 1957, ABD Serotec, Kindlington, Oxford, UK) or rat anti-PECAM1 (1:500, Cat# 550274, BD Pharmingen, San Jose, Calif.), rabbit anti-αv integrin (1:1000, Cat# AB1930; Chemicon), rabbit anti-β3 integrin (1:100, Cat# AB1932, Chemicon), rat anti-α5β1 integrin (1:100, Cat# MAB1984, Chemicon), or rabbit anti-laminin IgG (1:300, Cat# L9393, Sigma). As a control, purified rat or rabbit IgG (IR-RB-IGG, IR-IB IGG, Innovative Research, NoVi, Mich.) was used instead of the primary antibody. Next, the sections were incubated in TBST containing 5% donkey serum and 1:500 of appropriate secondary antibodies (donkey TRITC-conjugated Fab fragments, Invitrogen™, Carlsbad, Calif.; Alexa594) for 1 h at room temperature. Finally, the sections were coverslipped with antifade Gel/Mount aqueous mounting media (SouthernBiotech, Birmingham, Ala.). In between steps, sections were washed 3 times for 10 minutes in TBS. To measure the volume of tissue loss as determined by laminin staining in the horizontal sections, the sections were processed using an ABC-DAB staining protocol.
(§1) Sections were examined using a Leica DMIRE2 brightfield and fluorescence microscope and images digitized with an attached Spot RTKE camera (Diagnostics Inc., Sterling Height, Mich.). EC, CD45, CD68 and PECAM staining through the entire plane of the transverse sections was digitized using a 5× objective and the area occupied by the staining calculated for the three sections per rostro-caudal level by using the threshold feature of Scion Image software (Scion Corporation, Frederick, Md.). For analysis of LEA labeled (perfused) blood vessels, images of the dorsal column and adjacent gray matter and of the ventrolateral funiculus and adjacent gray matter were taken at the injury epicenter and at 1 mm rostral and caudal to it using a 20× objective. The area of LEA was determined with Scion Image. To provide a measure of the number of blood vessels, the number of LEA-positive vessels intersecting 100 μm spaced horizontal (5) and vertical (6) lines were counted in each image. To determine the volume of the heterodomain, every 5th horizontal section was stained for laminin using DAB as substrate, the heterodomain was circled in each section as well the outline of the entire 10 mm length of the spinal cord segment using Neurolucida software (MBF Bioscience, Williston, Vt.). The software calculated the volume based on the section interval and the area per section and this was expressed as a percentage of the total 10 mm segment.
Adjacent sections at each mm level were processed for double- or triple immunofluorescent staining to detect CD45 (leukocytes), CD68 (activated microglia/macrophages), PECAM1 (ECs), αv, β3 or α5β1 integrin, or in some cases laminin to define the area of tissue loss. In mice, lost tissue after SCI is replaced by a fibroblast-rich stroma, which has been identified as a heterodomain and is rich in laminin. Slides were warmed for 20 min on a slide warmer, a ring of wax applied around the sections with a PAP pen (Invitrogen, Carlsbad, Calif.), and the slides rinsed in 0.1 M Tris-buffered saline (TBS) for 10 min. […]

[2] = tested on: C57BL/6 mice with spinal cord contusion at T9; assay: Blood vessel permeability: luciferase extravasated into the spinal cord at the injury site; details: 24 hours and 72 hours following SCI
Procedure: Increased permeability contributes to tissue loss following SCI and was measured here by the amount of luciferase that extravasated into the spinal cord at the injury site after i.v. injection 20 minutes before analysis.

[3] = tested on: C57BL/6 mice with spinal cord contusion at T9; assay: White matter sparing at the injury epicenter (eriochrome cyanine myelin staining) after spinal cord contusion
Procedure: These mice were tested for overground locomotion using the Basso Mouse Scale (BMS) before the contusion and on the day of euthanasia.
To label endothelial cells of perfused blood vessels, 4 of the vehicle and 4 of the C16 mice received an intravenous injection of the lectin LEA 20 minutes before euthanasia.
To determine whether […] C16 would be neuroprotective, vehicle (n=8) or 100 μg/day C16 (n=9) was injected over 7 days. These mice were tested using the BMS before the contusion and on the last day.
To determine whether C16 had lasting neuroprotective effects, mice received daily injections with vehicle (n=8) or 100 μg/day C16 (n=9) for 14 days. The treatment was started 4 hours after the spinal cord injury consistent with the time it takes to diagnose most injured humans in the developed world. These mice were evaluated every week by BMS and were euthanized after 6 weeks. LEA was injected 20 minutes before euthanasia.
To detect myelin in white matter tracts, one of every five of the transverse sections at each rostro-caudal 1 mm level were stained with a modified eriochrome cyanine (EC) staining protocol (Rabchevsky et al., 2001, J Neurotrauma 18:513-522). After thawing and drying for 1 to 2 hours in a slide warmer at 37° C., the slides were placed in xylene at room temperature for 5 minutes, then through graded ethanol solutions (twice each in 100 and 95% ethanol, once in 70% ethanol, and twice in ddH2O) and stained with EC solution (0.2% eriochrome cyanine RS, 0.5% sulfuric acid, and 0.4% ferric ammonium sulfate) for 30 minutes. Afterwards, the slides were gently washed in running tap water for 5 minutes, and then briefly rinsed in ddH2O. The slide was differentiated in 5% ferric ammonium sulfate for 5 to 10 minutes, briefly rinsed in ddH2O, dehydrated briefly through graded ethanol solutions, cleared through xylene, and the sections coverslipped in Entellan® embedding agent (Electron Microscopy Sciences, Hatfield, Pa.). The injury epicenter was determined for each mouse by the rostro-caudal level that contained the least amount of spared myelin per transverse section. This epicenter level was used to align the other histological measurements for each mouse.
as §1
To detect myelin in white matter tracts, one of every five of the transverse sections at each rostro-caudal 1 mm level were stained with a modified eriochrome cyanine staining protocol. […]

[4] = 24 hours, 3 mm rostral to 3 mm caudal from the epicenter
[5] = 7 day treatment, at 7 days, 6 mm segment
[6] = single bolus injection, 7 days after the injury

Sequence: KAFDITYVRLKF [C16, KAFDITYVRLKF (SEQ ID NO:2)]
- smaller area of CD45 staining than vehicle treated mice [1, 4]: 39%
- smaller area of CD68 staining than vehicle treated mice [1, 4]: 23% and ~25%
- CD45 area lower than vehicle [1, 5]: 53%
- CD68 area lower than vehicle [1, 5]: 57%
- area of CD45 immunostaining less than in vehicle treated mice ([1]; 14 day treatment, at 6 weeks): 32%
- area of CD68 immunostaining less than in vehicle treated mice ([1]; 14 day treatment, at 6 weeks): 30%
- inflammation (CD45, CD68 area) compared with vehicle ([1]; all post-injury times, 3 mm rostral to 3 mm caudal from the epicenter): reduced inflammation
- reduction of CD45 area at the epicenter ([1]; at 7 days): 49%
- reduction of CD68 area at the epicenter ([1]; at 7 days): 44%
- effect on the CD45 area [1, 6]: no significant effect
- reduction of the CD68 stained area compared to vehicle injections [1, 6]: 26%
- effect on luciferase extravasation [2]: no significant effect
- white matter remaining at 7 days ([3]; 30 μg C16 daily i.v. over 7 days): 36±2%
- white matter remaining at 7 days ([3]; 100 μg C16 daily i.v. over 7 days): 49±4%
- spared white matter at the injury epicenter, of sham ([3]; 100 μg daily i.v. over 14 days starting 4 hours after injury, 42 days (6 weeks) after injury): 63±4%
- white matter cross-sectional area at the injury epicenter, percent of sham-operated mice ([3]; 100 μg/day i.v. daily for 7 days, 7 days after contusion): 52±5% and 51±5%
- white matter remaining at 7 days ([3]; 300 μg C16 daily i.v. over 7 days): 43±5%
- cross-sectional area of white matter at the epicenter compared with vehicle ([3]; 7 and 42 day post-injury times): greater
- lowest dose with the maximum effect on white matter sparing ([3]; daily i.v. over 7 days, doses 30, 100, 300 μg): 100 µg
- area of spared white matter at the epicenter ([3]; single bolus i.v. immediately after contusion, 7 days): 42±3%
